{
  "source": "paper PMC12948210",
  "about": "(2025)",
  "binders": {"B1": {"name": "His-DDX21 (protein)", "chain": "MPGKLRSDAGLESDTAMKKGETLRKQTEEKEKKEKPKSDKTEEIAEEEETVFPKAKQVKKKAEPSEVDMNSPKSKKAKKKEEPSQNDISPKTKSLRKKKEPIEKKVVSSKTKKVTKNEEPSEEEIDAPKPKKMKKEKEMNGETREKSPKLKNGFPHPEPDCNPSEAASEESNSEIEQEIPVEQKEGAFSNFPISEETIKLLKGRGVTFLFPIQAKTFHHVYSGKDLIAQARTGTGKTFSFAIPLIEKLHGELQDRKRGRAPQVLVLAPTRELANQVSKDFSDITKKLSVACFYGGTPYGGQFERMRNGIDILVGTPGRIKDHIQNGKLDLTKLKHVVLDEVDQMLDMGFADQVEEILSVAYKKDSEDNPQTLLFSATCPHWVFNVAKKYMKSTYEQVDLIGKKTQKTAITVEHLAIKCHWTQRAAVIGDVIRVYSGHQGRTIIFCETKKEAQELSQNSAIKQDAQSLHGDIPQKQREITLKGFRNGSFGVLVATNVAARGLDIPEVDLVIQSSPPKDVESYIHRSGRTGRAGRTGVCICFYQHKEEYQLVQVEQKAGIKFKRIGVPSATEIIKASSKDAIRLLDSVPPTAISHFKQSAEKLIEEKGAVEALAAALAHISGATSVDQRSLINSNVGFVTMILQCSIEMPNISYAWKELKEQLGEEIDSKVKGMVFLKGKLGVCFDVPTASVTEIQEKWHDSRRWQLSVATEQPELEGPREGYGGFRGQREGSRGFRGQRDGNRRFRGQREGSRGPRGQRSGGGNKSNRSQNKGQKRSFSKAFGQ"}},
  "assay_in_all_cases": "pull-down; 30 µg purified GST-tagged EIF1AX protein on glutathione agarose beads, 500 mM NaCl; 25 µg His-DDX21 purified under non-denaturing or denaturing conditions, 2 h at 4 °C; washed with 500 mM NaCl; western blot; both purified",
  "key": {"[1]": {"target": "T1, GST-tagged EIF1AX IDR2 fragment (Homo sapiens (Human), UniProt P47813)", "T1 chain": "DIGDDDEDIDDI"}, "[2]": {"target": "T2, GST-tagged EIF1AX IDR1 fragment (Homo sapiens (Human), UniProt P47813)", "T2 chain": "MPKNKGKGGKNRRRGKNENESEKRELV"}, "[3]": {"target": "T3, GST-tagged EIF1AX RBP fragment (Homo sapiens (Human), UniProt P47813)", "T3 chain": "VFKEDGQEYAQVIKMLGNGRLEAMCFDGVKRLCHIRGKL"}},
  "note": "These are yes or no findings as the source states them, for the method shown. Some results given as binding are weak or reduced against the parent protein; the word gives no strength. Where a sequence is shown, tags or fusion partners need not be part of it.",
  "data": [
    {"binder": "B1", "values": [
      {"measurement": "binding", "setting": "[1]", "value": "no binding (tested: 25 µg His-DDX21 on 30 µg GST protein)"},
      {"measurement": "binding", "setting": "[2]", "value": "no binding (tested: 25 µg His-DDX21 on 30 µg GST protein)"},
      {"measurement": "binding", "setting": "[3]", "value": "binds"}
    ]}
  ]
}
